The values that follow come from PMC5356829.

Chains of the proteins cited; added tags and fusions are not shown. Lines headed by an entry give the natural chain unless they say otherwise; changes in a name come on top. A line that says so, or that is headed by a name, gives the form on record, which may keep a tag or linker. Residues count along the entry.
UniProt P23511: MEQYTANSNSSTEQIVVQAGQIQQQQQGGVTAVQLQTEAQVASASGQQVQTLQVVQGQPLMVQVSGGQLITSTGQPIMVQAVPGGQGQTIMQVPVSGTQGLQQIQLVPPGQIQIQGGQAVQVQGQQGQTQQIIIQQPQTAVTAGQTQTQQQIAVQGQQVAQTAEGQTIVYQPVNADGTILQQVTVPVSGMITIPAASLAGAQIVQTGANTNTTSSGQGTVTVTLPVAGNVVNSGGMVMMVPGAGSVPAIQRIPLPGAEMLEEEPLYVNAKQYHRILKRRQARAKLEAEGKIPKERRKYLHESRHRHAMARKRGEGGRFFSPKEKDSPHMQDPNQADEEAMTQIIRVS
lamin A (endogenous) (P02545, residues 1-646): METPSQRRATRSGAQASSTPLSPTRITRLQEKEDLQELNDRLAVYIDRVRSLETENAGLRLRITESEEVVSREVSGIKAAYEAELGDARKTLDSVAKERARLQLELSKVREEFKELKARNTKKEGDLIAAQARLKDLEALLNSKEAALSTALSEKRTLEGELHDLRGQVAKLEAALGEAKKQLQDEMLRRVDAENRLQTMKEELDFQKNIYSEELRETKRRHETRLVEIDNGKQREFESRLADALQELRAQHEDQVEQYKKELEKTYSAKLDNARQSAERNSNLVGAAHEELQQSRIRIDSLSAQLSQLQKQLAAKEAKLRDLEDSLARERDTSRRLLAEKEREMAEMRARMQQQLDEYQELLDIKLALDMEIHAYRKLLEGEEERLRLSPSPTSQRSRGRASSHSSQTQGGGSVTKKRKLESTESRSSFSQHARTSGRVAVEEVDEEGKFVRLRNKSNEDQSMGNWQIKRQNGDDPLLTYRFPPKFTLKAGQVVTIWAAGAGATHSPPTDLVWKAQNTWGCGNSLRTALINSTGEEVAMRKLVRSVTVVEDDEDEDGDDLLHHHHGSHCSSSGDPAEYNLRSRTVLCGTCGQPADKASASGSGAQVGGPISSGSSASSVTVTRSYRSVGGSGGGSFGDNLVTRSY
lamin C (endogenous) (P02545-2, form named): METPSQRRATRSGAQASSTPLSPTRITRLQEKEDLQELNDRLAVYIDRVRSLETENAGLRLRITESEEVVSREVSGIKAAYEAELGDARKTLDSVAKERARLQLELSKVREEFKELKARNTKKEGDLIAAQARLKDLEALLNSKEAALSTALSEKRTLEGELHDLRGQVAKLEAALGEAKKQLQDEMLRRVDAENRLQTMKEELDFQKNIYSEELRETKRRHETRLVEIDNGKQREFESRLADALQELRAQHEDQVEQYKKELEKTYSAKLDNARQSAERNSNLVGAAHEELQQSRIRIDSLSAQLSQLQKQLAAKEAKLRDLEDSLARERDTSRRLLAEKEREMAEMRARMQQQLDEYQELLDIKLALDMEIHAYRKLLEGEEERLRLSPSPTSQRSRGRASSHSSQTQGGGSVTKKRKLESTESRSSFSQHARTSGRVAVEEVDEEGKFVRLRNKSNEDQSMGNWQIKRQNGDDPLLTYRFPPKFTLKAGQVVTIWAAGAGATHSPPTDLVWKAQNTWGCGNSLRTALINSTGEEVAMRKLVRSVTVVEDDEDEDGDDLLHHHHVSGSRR

These are yes or no findings as the source states them, for the method shown. In cells and extracts the contact can be indirect. These calls come from enrichment with a bait or labelling near it, and not all partners need be listed. A no says only that the protein was not detected with the bait.

For this test, the target named is NF-YA, long isoform, overexpressed in SKBR3 cells (UniProt P23511). Briefly: affinity purification with mass spectrometry; lysates (2 mg/sample) of SKBR3 cells overexpressing long NF-YA, precipitated 4 h at 4 °C with anti-NF-YA polyclonal antibody cross-linked to protein G; bands cut from SDS-PAGE gel, MALDI-MS and MS/MS.

As for “lamin A (endogenous) (from UniProt P02545 1-646)”, the binding result is “binds”.
Turning to “lamin C (endogenous) (from UniProt P02545-2 1-572)”, the binding entry was “no binding”.
